Measured values reported in US5286492A, “Method of treatment of Heliobacter pylori infections with triclosan” (Reckitt & Colman Products Limited, priority 1990, dated 1994).

Tested on: Helicobacter pylori
Assay: MIC50/MIC90 versus Helicobacter pylori by agar dilution technique at neutral pH
Format: cell-based
Method: The in vitro activities of a range of antimicrobial compounds versus Helicobacter pylori were determined by methods based on those of McNulty et al (Antimicrobial Agents and Chemotherapy, 28, 837-838, 1985). The Minimum Inhibitory concentrations for 50% and 90% of the strains used (MIC50 and MIC90), versus each antimicrobial were determined using an agar dilution technique.
The MIC of an antimicrobial agent was defined as that concentration (in mg per liter of agar) at which less than 1 in 10^5 organisms produced visible colonies.
Helicobacter pylori strains were isolated from gastric antrum biopsy specimens taken at routine endoscopy during investigation of upper gastrointestinal symptoms. They were identified as Helicobacter pylori by their colonial morphology, gram stain appearance and positive rapid urease test. The organisms were stored in liquid nitrogen before use and subcultured for testing by 48 hour incubation, at 37° C. under 10% carbon dioxide in Tryptone Soya Broth (TSB, OXOID, UK) plus 5% horse serum (Tissue Culture Services, UK).
The first test procedure determined the effectiveness of a range of antimicrobial substances versus 16 to 18 strains of Helicobacter pylori at neutral pH. Freshly prepared Isosensitest Agar of pH 7.2 (Oxoid, UK) supplemented with 10% saponinlysed horse blood was used to prepare a dilution series of each antimicrobial from which agar plates were produced. A multipoint inoculator (Denley-Tech, UK) was used to deliver 1 µl of undiluted test culture to the surface of each plate in the dilution series to give approximately 10^6 cfu/spot. The plates were incubated for three days at 37° C. in a microaerobic atmosphere of 6% oxygen and 10% carbon dioxide.
Table 1 presents test data for the twelve selected antimicrobial agents tested against Helicobacter pylori at neutral pH.

CCCCCCCCCCCCCCCC[n+]1ccccc1 [Cetyl pyridinium Cl]
8 µg/mL: MIC50 (72 h, pH 7.2) | MIC90 (pH 7.2) | MIC (pH 7.2, read-out: MIC Range)
